According to patent publication US20250367313A1 (MULTITUDE, published 2025):
Positions count from the first letter of the chain named. Results are given in words; binding and its absence hold for the method and conditions named. Some binding calls cover weakened binding; strength is not graded here.

T1: recombinant MUC18 protein (rProtein) (Homo sapiens (Human)) (UniProt P43121)
T1 sequence: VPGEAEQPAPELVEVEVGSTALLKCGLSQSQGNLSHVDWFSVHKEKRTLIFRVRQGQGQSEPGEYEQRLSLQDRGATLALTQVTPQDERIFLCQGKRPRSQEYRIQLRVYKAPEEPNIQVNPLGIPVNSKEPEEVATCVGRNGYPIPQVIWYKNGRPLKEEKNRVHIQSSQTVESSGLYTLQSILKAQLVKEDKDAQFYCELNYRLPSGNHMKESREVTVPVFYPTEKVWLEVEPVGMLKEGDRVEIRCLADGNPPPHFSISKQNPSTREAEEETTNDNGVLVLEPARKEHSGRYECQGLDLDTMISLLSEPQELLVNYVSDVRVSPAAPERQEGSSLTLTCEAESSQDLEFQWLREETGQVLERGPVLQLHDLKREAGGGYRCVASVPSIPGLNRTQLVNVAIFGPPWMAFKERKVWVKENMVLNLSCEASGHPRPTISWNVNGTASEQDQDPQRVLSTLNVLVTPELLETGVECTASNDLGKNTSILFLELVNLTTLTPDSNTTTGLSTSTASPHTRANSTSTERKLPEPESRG

B1: CL070336 (antibody, V domains shown)
VH: DVQLQESGPDLVKPYQSLSLTCTVTGYSITSGYSWHWIRQFPGNKLEWLGYMHYSATPNYNPSLKSRISITRDTSKNQFFLQLNSVTTEDTATYYCSRSLNWDVLDYWGQGTTLIVSS
VL: DIVLTQSPAYLPVSLGQRATISCRASKSVRTSGYNYLHWYQQKPGQPPKLLIYLASNPESGVPGRFSGSGSGTDFTLNIHPVEEEDSATYYCQHSREFPFTFGGGTQLEIK
notes: also called anti-MUC18 antibody CL070336
B2: CL070335 (antibody, V domains shown)
VH: B1 VH with Y15S, L49M, M52I, A56T, P58T, N84S, Y95F
VL: B1 VL with N35S, P58L, G64D, S87A, S95T, Q107K
notes: also called anti-MUC18 antibody CL070335
B3: CL070333 (antibody, V domains shown)
VH: QVQLQQSGPELVKPGTSVKISCKASGFTFTGYYLHWLKQRPGQGLEWIGWIYPGNVNTEFNEKFKGQATLTADKSSSTAYMQLSSLTSEDSAVYFCARSGYFASSYEFAYWGQGTLVTVSA
VL: DIQMTQSPASLSASVGETVTITCRASENIYSYLAWYQQKQGKSPQLLVYNAKTLAEGVPSRFSVSGSGTHFSLKINSLQPEDFGSYYCQHHYGTPLTFGAGTKLELK
notes: also called anti-MUC18 antibody CL070333
B4: CL070324 (antibody, V domains shown)
VH: EVLLQQSGPELVKPGASVKIPCKASGYTFTDYNMDWVKQSHGKSLEWIGDINPNNGATLYNQNFRGKATLTVDKSSSTAYMELRSLTSEDTAVYYCTRSGYDDYYALDYWGQGTSVTVSS
VL: QTVLTQSPAIMSASLGEEITLTCSASSSVGYMHWYQQKSGTSPKLLIYSTSNLASGVPSRFSGRGSGTFYSLTISTVEAEDAADYYCHQWSNYPSTFGTGTKLELK
notes: also called anti-MUC18 antibody CL070324
B5: CL070341 (antibody, V domains shown)
VH: EVQLVESGGDLVRPGGSLKLSCAASGFTFSTYGMSWVRQSPDKRLEWVATINSRASYTYYPDSVKGRFTISRDNAKNTLYLQMSSLKSEDTGLYFCARHRRDWDSYYAMDYWGQGTSVTVSS
VL: NIMLTQSPSSLAVSTGDKVTMNCKSSQSVLYNSNQKNYLAWYQQKPGQSPTLLIYWASTSESGVPDRFTGSGSGTDFTLTISSVQAEDLAVYYCHQYLSSWTFGGGTKLEIK
notes: also called anti-MUC18 antibody CL070341
B6: CL070350 (antibody, V domains shown)
VH: AVQLVESGGDLLRPGGSLKLSCVASGFTFNNYGMSWVRQTPDKRLEWVATINRGGSYTYYTDSVKGRFTISRDNAKKTLYLQMSSLKSEDTAMYYCARHRRDWDSYYAMDYWGQGTSVTVSS
VL: B5 VL with L4M, T15A, T20A, N22S, Q27R, Q44L, T51K, S60R, L109V
notes: also called anti-MUC18 antibody CL070350
B7: CL070349 (antibody, V domains shown)
VH: DVQLQESGPGLVKPSQSLSLTCSVTGYSITSGFYWNWIRQLPGNKLEWLGYINFGGTNNYNPSLKIRGSITRDTSKNQFFLKLNSVTTEDTATYYCARGGNDGGFTYWGQGTLVTVSA
VL: ENVLTQSPAIVAASLGQKVTMTCRASSSVSSTYFHWYQQKSGASPKPLLHRTSNLASGVPARFSGSGSGTSYSLTISSVEAEDDATYYCHQWSGYPYTFGGGTKLEIK
notes: also called anti-MUC18 antibody CL070349
B8: CL070370 (antibody, V domains shown)
VH: QIQLVQSGPELKKPGETVKISCKTSGYTFTDYSMHWVKQAPRKGLKWMGWINTETGEPTYADDFKGRFAFSLETSASTAYLQINNLRNEDTATYFCVSYDYDAVSYWGQGTLVTVSA
VL: DIVMTQSHKFMSTSVGDRVNITCKASQYVGAAVAWYQQKPGQSPKLLIYWASTRHTGVPDRFTGSGSGTDFTLTINNVQSEDLADYFCQQYGNYRTFGGGTKLEIK
notes: also called anti-MUC18 antibody CL070370
B9: J253 (antibody, V domains shown)
VH: QVQLQQSGAELVKPGASVKLSCKASGYTFTSYDINWVRQRPEQGLEWIGWIFPGDGSTDYNEKFKGKATLTTDKSSSTAYMQLSRLTSEDSAVYFCARYHFFDNWGQGTTLTVSS
VL: DIVITQDELSNPVTSGESVSISCRSSKSLLYKDGKTYLSWFLQRPGQSPQLLIYLMSTRASGVSDRFSGSGSGTDFTLEISRVKAEDVGVYYCQQLVEYPYTFGGGTKLEIK
notes: also called anti-MUC18 antibody (J253)
B10: CL070321 (antibody, V domains shown)
VH: B4 VH with M34I, A57G, N63K, R65K, G66A, L70M, E89D, T97A, L107F
VL: QVVLTQSPAIMSAFLGEKITLTCSASSSVGYLHWYQQKSGTSPKLLIYSTSNVASGVPSRFSGSGSGTFYSLKISSVEAEDAADYYCHQWSSYPSTFGAGTRLELK
B11: CL070320 (antibody, V domains shown)
VH: B4 VH with K13Q, A16T, A57G, N63K, R65K, T71S, T91A, T97A, D103N
VL: B4 VL with T2I, A9P, S28T, Y35F, R64S, T76S, N92S, S95C, T99A

Target: T1, recombinant MUC18 protein (rProtein) (Homo sapiens (Human))
Assay: ELISA titration with recombinant MUC18 protein

Binder	binding
B1	binds
B2	binds
B3	binds
B4	binds
B5	binds
B6	binds
B7	binds
B8	binds
B9	binds
B10	no binding (tested: 1000 nM)
B11	no binding (tested: 1000 nM)
